Test results taken from publication PMC10598017.
These are yes or no findings as the source states them, for the method shown. In cells and extracts the contact can be indirect. Some binding calls cover weakened binding; strength is not graded here.

By UniProt entry, the sequences of proteins in these tests, tags left out. Where a name states a change or a piece, a line headed by the entry shows the natural chain unless it says otherwise.
UniProt Q9Z2X8: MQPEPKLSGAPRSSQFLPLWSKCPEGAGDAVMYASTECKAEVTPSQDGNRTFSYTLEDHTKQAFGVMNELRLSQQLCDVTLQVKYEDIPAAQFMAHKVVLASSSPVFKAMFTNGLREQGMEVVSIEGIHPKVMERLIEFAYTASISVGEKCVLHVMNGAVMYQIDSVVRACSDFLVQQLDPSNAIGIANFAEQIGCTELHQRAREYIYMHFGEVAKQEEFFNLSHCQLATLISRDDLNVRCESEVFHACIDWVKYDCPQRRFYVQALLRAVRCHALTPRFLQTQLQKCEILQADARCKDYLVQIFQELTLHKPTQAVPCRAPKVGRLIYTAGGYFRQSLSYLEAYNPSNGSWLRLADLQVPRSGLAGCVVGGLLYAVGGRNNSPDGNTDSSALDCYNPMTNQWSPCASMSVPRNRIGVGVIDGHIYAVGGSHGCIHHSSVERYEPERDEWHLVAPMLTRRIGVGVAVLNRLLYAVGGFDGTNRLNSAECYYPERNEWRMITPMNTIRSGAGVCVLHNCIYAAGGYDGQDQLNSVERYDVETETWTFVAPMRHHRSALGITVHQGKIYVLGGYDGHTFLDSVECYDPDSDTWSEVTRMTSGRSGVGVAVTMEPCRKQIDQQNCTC
UniProt Q9DBY1: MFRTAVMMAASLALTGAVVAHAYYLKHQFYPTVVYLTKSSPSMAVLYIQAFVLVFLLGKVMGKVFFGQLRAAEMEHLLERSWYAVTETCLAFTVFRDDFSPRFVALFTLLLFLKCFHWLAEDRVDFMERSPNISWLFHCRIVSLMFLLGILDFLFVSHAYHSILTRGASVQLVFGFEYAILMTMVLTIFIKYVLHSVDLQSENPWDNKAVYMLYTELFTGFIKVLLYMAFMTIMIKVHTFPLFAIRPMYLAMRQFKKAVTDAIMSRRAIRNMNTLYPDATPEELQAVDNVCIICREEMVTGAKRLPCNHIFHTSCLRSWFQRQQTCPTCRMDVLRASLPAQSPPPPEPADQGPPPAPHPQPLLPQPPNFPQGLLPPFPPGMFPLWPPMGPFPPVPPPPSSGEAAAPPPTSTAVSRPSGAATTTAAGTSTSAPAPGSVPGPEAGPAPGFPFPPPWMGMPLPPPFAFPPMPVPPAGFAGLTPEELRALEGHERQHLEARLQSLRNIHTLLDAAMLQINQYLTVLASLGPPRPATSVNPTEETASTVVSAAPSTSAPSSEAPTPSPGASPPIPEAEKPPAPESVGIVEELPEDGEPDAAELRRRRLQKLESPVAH

What was measured:
[1] = target: Kelch-like ECH-associated protein (Keap1) (mouse (endogenous in mouse heart tissue and HL-1 cardiomyocytes)) (UniProt Q9Z2X8); assay: co-IP; lysates of HL-1 cardiomyocytes transfected with empty plasmid or Syvn1 C115A adenovirus, treated with HG + PA and NaHS; protein A/G magnetic beads overnight at 4 °C, western blot
[2] = target: Kelch-like ECH-associated protein (Keap1) (mouse (endogenous in mouse heart tissue and HL-1 cardiomyocytes)) (UniProt Q9Z2X8); assay: co-IP; lysates of heart tissue of WT, db/db and NaHS-treated db/db mice; 320 ug protein, antibody 10 ug/500 ug protein, protein A/G magnetic beads overnight at 4 °C, washed three times with lysis buffer, western blot

Row | binding [1] | binding [2] | Substance
1 | binds |  | Syvn1 C115A (from UniProt Q9DBY1 1-612)
2 | binds | binds | synoviolin (Syvn1) (from UniProt Q9DBY1 1-612)
